Source: publication PMC4014440
Results are given in words; binding and its absence hold for the method and conditions named. In cells and extracts the contact can be indirect. Binding calls can cover weak binding; strength is not graded here. Where a sequence is shown, tags or fusion partners need not be part of it.

T1: GFP::DLK-1S (short, inhibitory isoform of DLK-1 fused to GFP) (C. elegans) (UniProt O01700)
T1 sequence: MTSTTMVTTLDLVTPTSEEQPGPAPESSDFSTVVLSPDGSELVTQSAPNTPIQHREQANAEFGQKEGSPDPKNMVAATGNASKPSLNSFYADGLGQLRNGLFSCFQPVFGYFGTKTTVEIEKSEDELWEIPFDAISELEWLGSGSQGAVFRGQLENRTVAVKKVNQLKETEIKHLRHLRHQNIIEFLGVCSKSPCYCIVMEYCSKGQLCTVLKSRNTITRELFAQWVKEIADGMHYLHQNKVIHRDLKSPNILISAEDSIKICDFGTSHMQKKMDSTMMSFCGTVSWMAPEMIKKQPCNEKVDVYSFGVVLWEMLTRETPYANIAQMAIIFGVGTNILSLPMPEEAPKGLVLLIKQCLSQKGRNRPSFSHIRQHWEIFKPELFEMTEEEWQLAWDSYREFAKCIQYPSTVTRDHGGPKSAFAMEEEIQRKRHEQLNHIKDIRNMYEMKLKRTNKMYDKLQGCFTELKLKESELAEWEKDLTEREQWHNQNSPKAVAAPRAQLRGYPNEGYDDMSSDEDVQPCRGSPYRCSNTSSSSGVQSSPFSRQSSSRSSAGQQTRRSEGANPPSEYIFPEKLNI


Key:
[1] = target: T1, GFP::DLK-1S (short, inhibitory isoform of DLK-1 fused to GFP) (C. elegans); experiment: co-IP; GFP::DLK-1S precipitated from 10 mg of transgenic whole worm lysate (0.1% NP-40 lysis buffer); FLAG::DLK-1L K162R detected by anti-FLAG immunoblot; wild-type and ppm-2-/- mutant animals (binding unchanged)
[2] = target: FLAG epitope tagged DLK-1 K162R (FLAG::DLK-1L K162R) (C. elegans); experiment: co-IP; FLAG::DLK-1 K162R immunoprecipitated from 5 mg of transgenic whole worm lysate (0.1% NP-40 lysis buffer); wild-type or mutant PPM-2::GFP detected by anti-GFP immunoblot; bands quantified with Image J as ratio of PPM-2::GFP in coIP to FLAG::DLK-1 K162R immunoprecipitated

Row | binding [1] | binding [2] | Molecule
1 | binds |  | FLAG epitope tagged DLK-1 K162R (FLAG::DLK-1L K162R) (C. elegans) (enzyme)
2 |  | binds | PPM-2::GFP (GFP fusion protein of wild-type PPM-2) (enzyme, UniProt P49596 1-356) MGQTLSEPVTKKESASCANENYLVGSSCMQGWRVDMEDAHTHLLSLPDDPKCAFFAVYDGHGGSKVSQYSGINLHKKVVAQKEFSEGNMKEAIEKGFLELDQQMRVDEETKDDVSGTTAVVVLIKEGDVYCGNAGDSRAVSSVVGEARPLSFDHKPSHETEARRIIAAGGWVEFNRVNGNLALSRALGDFAFKNCDTKPAEEQIVTAFPDVITDKLTPDHEFIVLACDGIWDVMTNQEVVDFVREKLAEKRDPQSICEELLTRCLAPDCQMGGLGCDNMTVVLVGLLHGQSPDTLFTKCARPAVFTGVNNEDGDQNQIQQDISRVINNFDGEQRVNAANQEEEEDDNEPAPANFQV
3 |  | binds | PPM-2::GFP D59N (catalytically inactive PPM-2) (enzyme, UniProt P49596 1-356) MGQTLSEPVTKKESASCANENYLVGSSCMQGWRVDMEDAHTHLLSLPDDPKCAFFAVYNGHGGSKVSQYSGINLHKKVVAQKEFSEGNMKEAIEKGFLELDQQMRVDEETKDDVSGTTAVVVLIKEGDVYCGNAGDSRAVSSVVGEARPLSFDHKPSHETEARRIIAAGGWVEFNRVNGNLALSRALGDFAFKNCDTKPAEEQIVTAFPDVITDKLTPDHEFIVLACDGIWDVMTNQEVVDFVREKLAEKRDPQSICEELLTRCLAPDCQMGGLGCDNMTVVLVGLLHGQSPDTLFTKCARPAVFTGVNNEDGDQNQIQQDISRVINNFDGEQRVNAANQEEEEDDNEPAPANFQV
